Data from article PMC8709211 (Pharmaceutics, 2021).
Plain letter strings leave the end groups untold.

assay: general procedure: Fmoc solid-phase peptide synthesis; Rink amide resin; Oxyma/DIC; HATU/DIPEA; conditions: whole synthesis, UV-chromatogram (HPLC), 10-60% ACN in water (0.1% TFA) over 15 min

Substance | final HPLC purity [%]
KKKK-LLIILRRRIRKQAHAHSK | >99
GLRKRLRKFRNKIKEK | >99
1GLRKRLRKFRNKIKEK16 | >99
KKKK-GLRKRLRKFRNKIKEK | >98
KK-GLRKRLRKFRNKIKEK | >95
CB-KKKK-LLIILRRRIRKQAHAHSK | >97
K-LLIILRRRIRKQAHAHSK | >99
KKK-LLIILRRRIRKQAHAHSK | >98
KK-LLIILRRRIRKQAHAHSK | >99
K-GLRKRLRKFRNKIKEK | >99
1LLIILRRRIRKQAHAHSK18 | >97

same assay, conditions: whole synthesis, UV-chromatogram (HPLC), 10-60% ACN in water (0.1% TFA) over 15 min; run 1

Substance | final HPLC purity [%]
KKK-GLRKRLRKFRNKIKEK [CB3-CF-sC18] | >96
CB-KKKK-GLRKRLRKFRNKIKEK [CB5-CF-sC18] | >97
KKK-GLRKRLRKFRNKIKEK [CB3-sC18] | >97
CB-KKKK-GLRKRLRKFRNKIKEK [CB5-sC18] | >96
